Laboratory results reported in PMC9985596.
Results are given in words; binding and its absence hold for the method and conditions named. In cells and extracts the contact can be indirect. Some results given as binding are weak or reduced against the parent protein; the word gives no strength. Tags and fused reporters may be left off the sequences shown.

The chains behind the UniProt entries cited, without tags or fusion partners.
UniProt Q9H1A4: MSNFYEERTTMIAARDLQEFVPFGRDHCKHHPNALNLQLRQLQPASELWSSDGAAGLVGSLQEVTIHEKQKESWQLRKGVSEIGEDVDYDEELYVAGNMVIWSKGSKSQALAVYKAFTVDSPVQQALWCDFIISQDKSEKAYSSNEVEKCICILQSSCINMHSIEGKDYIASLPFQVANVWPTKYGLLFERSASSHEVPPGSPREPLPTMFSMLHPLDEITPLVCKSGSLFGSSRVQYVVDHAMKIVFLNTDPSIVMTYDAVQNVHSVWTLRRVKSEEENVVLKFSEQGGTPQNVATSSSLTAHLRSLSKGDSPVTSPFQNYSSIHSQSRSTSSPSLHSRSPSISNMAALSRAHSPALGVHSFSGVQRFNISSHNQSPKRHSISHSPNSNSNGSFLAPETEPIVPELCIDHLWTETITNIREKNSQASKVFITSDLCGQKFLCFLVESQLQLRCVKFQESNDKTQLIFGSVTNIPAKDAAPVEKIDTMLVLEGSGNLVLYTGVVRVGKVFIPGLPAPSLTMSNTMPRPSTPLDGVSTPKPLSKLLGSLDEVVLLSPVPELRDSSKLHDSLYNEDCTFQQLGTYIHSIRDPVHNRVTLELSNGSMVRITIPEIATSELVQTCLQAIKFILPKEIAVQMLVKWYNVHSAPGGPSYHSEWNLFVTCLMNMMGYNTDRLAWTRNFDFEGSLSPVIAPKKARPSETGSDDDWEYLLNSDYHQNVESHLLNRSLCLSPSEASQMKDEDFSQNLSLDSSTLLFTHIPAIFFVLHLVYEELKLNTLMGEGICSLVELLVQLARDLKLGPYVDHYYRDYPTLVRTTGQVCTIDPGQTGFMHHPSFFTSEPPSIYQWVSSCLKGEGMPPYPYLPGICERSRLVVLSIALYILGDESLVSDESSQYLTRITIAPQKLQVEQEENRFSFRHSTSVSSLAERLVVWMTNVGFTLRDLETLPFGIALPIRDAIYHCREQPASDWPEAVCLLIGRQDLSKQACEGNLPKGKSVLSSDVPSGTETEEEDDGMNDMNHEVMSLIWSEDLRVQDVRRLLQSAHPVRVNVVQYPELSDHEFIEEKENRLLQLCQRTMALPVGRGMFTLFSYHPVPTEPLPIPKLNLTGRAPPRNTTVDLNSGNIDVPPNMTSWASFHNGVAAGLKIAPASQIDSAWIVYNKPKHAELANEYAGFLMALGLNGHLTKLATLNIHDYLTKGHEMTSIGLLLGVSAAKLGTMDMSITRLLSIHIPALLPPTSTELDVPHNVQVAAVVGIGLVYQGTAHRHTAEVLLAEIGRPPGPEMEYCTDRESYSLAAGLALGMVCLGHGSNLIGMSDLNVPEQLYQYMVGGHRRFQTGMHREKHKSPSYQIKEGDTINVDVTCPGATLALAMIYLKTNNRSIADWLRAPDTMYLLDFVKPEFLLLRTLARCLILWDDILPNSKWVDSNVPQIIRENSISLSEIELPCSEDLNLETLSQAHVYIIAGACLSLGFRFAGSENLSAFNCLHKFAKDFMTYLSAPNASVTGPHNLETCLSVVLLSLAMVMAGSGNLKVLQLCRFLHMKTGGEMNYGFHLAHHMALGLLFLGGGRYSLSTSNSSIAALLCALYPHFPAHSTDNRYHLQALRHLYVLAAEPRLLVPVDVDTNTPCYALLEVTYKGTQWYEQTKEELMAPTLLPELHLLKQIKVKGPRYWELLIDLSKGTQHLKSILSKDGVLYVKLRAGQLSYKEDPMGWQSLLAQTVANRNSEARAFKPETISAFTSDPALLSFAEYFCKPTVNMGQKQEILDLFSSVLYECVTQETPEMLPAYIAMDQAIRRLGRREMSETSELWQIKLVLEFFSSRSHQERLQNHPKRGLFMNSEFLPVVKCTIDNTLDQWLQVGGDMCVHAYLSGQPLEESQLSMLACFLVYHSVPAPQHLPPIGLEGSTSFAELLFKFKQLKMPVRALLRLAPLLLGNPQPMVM
UniProt Q9UJX4: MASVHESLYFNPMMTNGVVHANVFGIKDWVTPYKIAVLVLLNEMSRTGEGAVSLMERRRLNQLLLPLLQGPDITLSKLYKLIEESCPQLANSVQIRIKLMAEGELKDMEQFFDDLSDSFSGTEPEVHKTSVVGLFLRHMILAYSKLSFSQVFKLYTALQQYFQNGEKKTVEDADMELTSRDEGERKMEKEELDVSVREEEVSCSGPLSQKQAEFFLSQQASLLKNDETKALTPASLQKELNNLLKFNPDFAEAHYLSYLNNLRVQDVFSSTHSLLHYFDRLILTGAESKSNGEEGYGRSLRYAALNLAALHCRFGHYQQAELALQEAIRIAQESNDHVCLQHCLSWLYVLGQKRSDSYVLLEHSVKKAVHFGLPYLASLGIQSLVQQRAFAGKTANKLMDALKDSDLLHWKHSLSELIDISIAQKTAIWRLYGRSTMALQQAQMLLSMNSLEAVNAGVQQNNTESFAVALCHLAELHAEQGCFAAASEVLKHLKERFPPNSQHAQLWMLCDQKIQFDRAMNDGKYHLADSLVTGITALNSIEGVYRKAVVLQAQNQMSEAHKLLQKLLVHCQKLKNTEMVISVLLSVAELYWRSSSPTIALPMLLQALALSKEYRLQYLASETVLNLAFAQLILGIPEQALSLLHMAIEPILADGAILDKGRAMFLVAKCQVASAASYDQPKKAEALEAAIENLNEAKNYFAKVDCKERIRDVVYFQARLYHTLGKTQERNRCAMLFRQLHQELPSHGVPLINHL

Key:
[1] = target: T1, FLAG-tagged RECQ4 Q757X mutant (human) (UniProt O94761); experiment: co-IP; FLAG-RECQ4 proteins on anti-FLAG M2 agarose from chromatin-bound (CB) fractions of stable RECQ4 KD HEK293 cells; western blot (Fig. 2d right, Fig. 7g)
T1 sequence: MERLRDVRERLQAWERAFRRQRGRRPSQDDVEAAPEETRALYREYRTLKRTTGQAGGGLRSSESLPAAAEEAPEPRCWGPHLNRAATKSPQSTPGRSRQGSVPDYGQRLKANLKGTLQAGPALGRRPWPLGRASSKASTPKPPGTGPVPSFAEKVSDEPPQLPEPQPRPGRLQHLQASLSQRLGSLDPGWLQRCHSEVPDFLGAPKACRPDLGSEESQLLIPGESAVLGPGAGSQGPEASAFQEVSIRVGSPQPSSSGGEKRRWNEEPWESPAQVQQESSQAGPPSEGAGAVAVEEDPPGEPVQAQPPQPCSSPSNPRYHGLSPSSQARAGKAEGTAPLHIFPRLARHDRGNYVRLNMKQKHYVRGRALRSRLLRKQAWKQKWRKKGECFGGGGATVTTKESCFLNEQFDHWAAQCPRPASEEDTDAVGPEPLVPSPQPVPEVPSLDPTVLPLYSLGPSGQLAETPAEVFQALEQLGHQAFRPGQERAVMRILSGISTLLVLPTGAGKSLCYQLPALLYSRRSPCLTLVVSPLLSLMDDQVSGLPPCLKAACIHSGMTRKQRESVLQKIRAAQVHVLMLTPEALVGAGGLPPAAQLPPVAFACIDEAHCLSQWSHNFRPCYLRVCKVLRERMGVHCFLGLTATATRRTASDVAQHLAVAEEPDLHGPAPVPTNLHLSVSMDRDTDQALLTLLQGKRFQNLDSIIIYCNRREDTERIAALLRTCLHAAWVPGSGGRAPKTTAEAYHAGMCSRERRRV

[2] = target: T1, FLAG-tagged RECQ4 Q757X mutant (human); experiment: co-IP; FLAG-RECQ4 WT, Q757X or Q757X-ID co-immunopurified from whole-cell extracts of stable, asynchronous RECQ4 KD HEK293 cells; western blot, normalised to the bait (Fig. 5a, f)
[3] = target: T2, recombinant His-RECQ4(1-492)-FLAG (human) (UniProt O94761); experiment: pull-down; purified recombinant His-RECQ4-FLAG fragments pre-bound to M2 agarose, incubated with the CB fraction of parental HEK293 cells for 4 h at 4 C; washed with FLAG-A-binding buffer; western blot, normalised to the bait (Fig. 4d, e); only the target purified
T2 sequence: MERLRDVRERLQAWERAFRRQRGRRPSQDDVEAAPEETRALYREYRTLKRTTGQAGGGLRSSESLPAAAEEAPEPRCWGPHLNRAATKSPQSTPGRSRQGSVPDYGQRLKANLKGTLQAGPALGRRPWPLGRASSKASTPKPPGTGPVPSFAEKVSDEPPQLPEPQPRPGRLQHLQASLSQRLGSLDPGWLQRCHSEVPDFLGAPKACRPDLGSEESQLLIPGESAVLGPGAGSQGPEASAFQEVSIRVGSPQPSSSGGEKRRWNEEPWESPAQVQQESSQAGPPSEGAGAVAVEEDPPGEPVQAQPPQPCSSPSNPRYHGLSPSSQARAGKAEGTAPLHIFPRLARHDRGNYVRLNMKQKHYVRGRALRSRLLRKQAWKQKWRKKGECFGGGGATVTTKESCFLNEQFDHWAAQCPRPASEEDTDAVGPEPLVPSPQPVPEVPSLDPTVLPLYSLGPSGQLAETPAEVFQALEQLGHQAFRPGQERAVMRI

[4] = target: T3, FLAG-tagged RECQ4 wild type (human) (UniProt O94761); experiment: co-IP; FLAG-RECQ4 constructs transiently overexpressed in RECQ4 KD HEK293 cells, immunopurified on M2 agarose from CB fractions; western blot, prey normalised to the bait (Fig. 4a, c)
T3 sequence: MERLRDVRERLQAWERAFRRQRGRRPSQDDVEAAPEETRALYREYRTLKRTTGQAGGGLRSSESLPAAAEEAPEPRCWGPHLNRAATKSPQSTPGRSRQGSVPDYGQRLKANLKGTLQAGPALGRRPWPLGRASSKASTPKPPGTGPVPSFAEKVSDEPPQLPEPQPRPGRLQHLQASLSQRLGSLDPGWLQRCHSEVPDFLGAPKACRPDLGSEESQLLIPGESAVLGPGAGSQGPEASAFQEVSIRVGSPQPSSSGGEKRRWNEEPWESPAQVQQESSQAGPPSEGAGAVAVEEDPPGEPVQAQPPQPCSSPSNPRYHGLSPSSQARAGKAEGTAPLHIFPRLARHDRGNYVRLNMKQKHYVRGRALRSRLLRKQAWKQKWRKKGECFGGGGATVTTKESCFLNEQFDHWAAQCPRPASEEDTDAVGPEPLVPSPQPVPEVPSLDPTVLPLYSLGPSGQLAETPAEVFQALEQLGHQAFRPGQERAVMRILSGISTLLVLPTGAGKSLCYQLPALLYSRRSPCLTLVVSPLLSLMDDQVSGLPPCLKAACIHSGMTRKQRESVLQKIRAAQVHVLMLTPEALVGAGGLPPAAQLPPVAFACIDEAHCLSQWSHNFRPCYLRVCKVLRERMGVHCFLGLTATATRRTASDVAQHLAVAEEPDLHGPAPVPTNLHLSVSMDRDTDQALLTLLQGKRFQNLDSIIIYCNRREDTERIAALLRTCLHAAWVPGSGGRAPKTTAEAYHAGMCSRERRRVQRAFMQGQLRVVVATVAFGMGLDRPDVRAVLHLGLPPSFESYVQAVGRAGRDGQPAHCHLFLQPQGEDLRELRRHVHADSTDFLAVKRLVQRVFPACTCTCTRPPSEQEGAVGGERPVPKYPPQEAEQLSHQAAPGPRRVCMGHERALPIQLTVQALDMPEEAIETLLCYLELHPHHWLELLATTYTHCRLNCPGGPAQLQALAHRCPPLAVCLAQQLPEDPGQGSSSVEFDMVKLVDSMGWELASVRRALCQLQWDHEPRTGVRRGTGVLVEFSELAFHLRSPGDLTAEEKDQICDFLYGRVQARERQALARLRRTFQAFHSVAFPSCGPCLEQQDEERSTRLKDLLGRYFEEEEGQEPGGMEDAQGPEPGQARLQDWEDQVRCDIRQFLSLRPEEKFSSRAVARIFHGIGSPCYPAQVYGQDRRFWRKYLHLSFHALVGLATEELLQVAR

binding [1]	binding [2]	binding [3]	binding [4]	Substance
binds	binds	binds	binds	APC1 (from UniProt Q9H1A4 1-1944)
binds	binds	binds	binds	APC5 (from UniProt Q9UJX4 1-755)
